Results published in PubChem BioAssay AID485314 (National Center for Advancing Translational Sciences (NCATS), 2010).
The whole screen tested about 340,000 compounds, of which about 4,500 (1.3%) were called active. The inconclusive results got no clear call from the source; some entries with a clear call stand among them for comparison. Calls come from the whole dose curve; as a rule, active = well fitted inhibition curve with a large enough effect; inconclusive = small, poorly fitted or top-dose-only effect, or another doubt; inactive = no such curve, though single readings can be large or run the other way. Where the call is inconclusive, the potency comes from a doubtful curve fit.

The compounds below were run against DNA polymerase beta (Homo sapiens) (UniProt P06746) (assay: qHTS Assay for Inhibitors of DNA Polymerase Beta). Conditions: Pol beta primer extension/strand displacement, fluorescence kinetic; activity change, negative = inhibition: at 114 µM (top of the series).
In short: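 Curves were derived by four-parameter Hill fits of normalized qHTS data. The kinetic fluorescent primer-extension read was taken at 0 and 10 min after 50 nM substrate, following a 15 min room-temperature preincubation of 10 nM enzyme with compounds.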
% is set by controls: 0 for no effect and ±100 for the full control effect; potency is the fitted concentration of half-maximal effect.

Potency, inconclusive:
COCCn1c(SC2CCOC2=O)nc2ccccc2c1=O (stereo unspecified) 89.1 µM [inhibitor, single point]
O=[N+]([O-])c1ccc(C2=NN(c3ccccc3)C(c3ccco3)C2)cc1 (stereo unspecified) 5.62 µM [inhibitor, partial curve]
C=CCOCC(O)Cn1c(N2CCCC2)nc2c1c(=O)[nH]c(=O)n2C (stereo unspecified) 89.1 µM [inhibitor, single point]
COc1ccc(/C=C2\SC(=S)N(CCC(=O)Nc3ccc(C(=O)O)cc3)C2=O)cc1OC 1.58 µM [inhibitor, full curve, poor fit]
Cc1cccc(-c2noc(CN(C)S(=O)(=O)c3cc(Cl)ccc3Cl)n2)c1 89.1 µM [inhibitor, single point]
O=C(Nc1ccncc1)Nc1ccccc1Cl 0.158 µM [inhibitor, full curve]
Cc1ccc(S(=O)(=O)N/N=C/c2ccc(O)c(O)c2)cc1[N+](=O)[O-] 50.1 µM [inhibitor, partial curve]
CCOc1ccc(NC(=O)CC(=O)Nc2ccc(OCC)cc2)cc1 35.5 µM [inhibitor, full curve, poor fit]
O=C(CSc1ncn[nH]1)Nc1cc(S(=O)(=O)N2CCCC2)ccc1Cl 39.8 µM [inhibitor, single point]
CCCc1cc(=O)n2[nH]cc(-c3ccc(Cl)cc3)c2n1 89.1 µM [inhibitor, single point]
Cc1cc(-c2ccc(/C=N/n3cnnc3)o2)ccc1Cl 50.1 µM [inhibitor, partial curve]
CCCCCCOc1ccc(C(CC(=O)NC)C(=O)O)cc1 (stereo unspecified) 12.6 µM [inhibitor, partial curve]
Cc1ccc(SCC(=O)Nc2ccc3oc(-c4ccccc4F)nc3c2)cc1 20 µM [inhibitor, partial curve, poor fit]
Cc1ccc(/C=N/NC(=O)Cc2c(F)cccc2Cl)s1 15.8 µM [inhibitor, partial curve]
CCOC(=O)c1ccccc1NC(=O)c1cnc(N2CCOCC2)c2ccccc12 89.1 µM [inhibitor, single point]
CCOC(=O)c1ccc(NC(=O)N(CC)CC)cc1 100 µM [inhibitor, single point]
Oc1c(C(c2cccs2)N2CCN(c3ccccc3)CC2)ccc2cccnc12 (stereo unspecified) 10 µM [inhibitor, partial curve, poor fit]
Cc1ccc2c(C)c(C(=O)N3CCN(Cc4ccc5c(c4)OCO5)CC3)oc2c1C 0.141 µM [inhibitor, full curve]
Cc1no[n+]([O-])c1COc1ccccc1/C=C1\NC(=S)NC1=O 15.8 µM [inhibitor, partial curve, poor fit]
COc1ccc(-c2nc(NCCCN(C)C)c3ccccc3n2)cc1 89.1 µM [inhibitor, single point]
CCc1cccc(CC)c1NC(=S)NCCc1c(C)[nH]c2ccc(C)cc12 79.4 µM [inhibitor, single point]
CCOC(=O)c1ccc(NC(=S)NCCc2ccc(F)cc2)cc1 89.1 µM [inhibitor, single point]
CCOC(=O)Cc1csc(NC(=O)CCCCCN2C(=O)c3ccccc3C2=O)n1 0.141 µM [inhibitor, full curve, poor fit]
CS(=O)(=O)N1CCN(C(=S)NCc2ccc(Cl)cc2)CC1 89.1 µM [inhibitor, single point]
O=C(Nc1ccc2nc(-c3ccco3)[nH]c2c1)c1cccs1 63.1 µM [inhibitor, partial curve, poor fit]
c1ccc(-c2nn3c(Cn4cnc5ccccc54)nnc3s2)cc1 100 µM [inhibitor, single point]
O=C(CNC(=O)Cc1ccccc1)N=Nc1c(O)[nH]c2ccc(Br)cc12 100 µM [inhibitor, single point]
CN(Cc1ccco1)S(=O)(=O)c1nnc(NC(=O)c2ccccc2Cl)s1 63.1 µM [inhibitor, single point]
CC(C)CNC(=O)Nc1cc(C(=O)NCc2ccc(C(C)C)cc2)ccc1N1CCCC1 1 µM [inhibitor, full curve]
CCOc1cc(C2NC(=O)NC(C)=C2C(C)=O)cc(Cl)c1OCC(=O)O (stereo unspecified) 50.1 µM [inhibitor, partial curve]
O=[N+]([O-])c1cc(Br)c(O)c(/C=N/Nc2nnnn2-c2cccc3ccccc23)c1 89.1 µM [inhibitor, single point]
O=C(Nc1ccccc1C(=O)O)c1ccc(NC(=O)c2ccc(Br)o2)cc1 25.1 µM [inhibitor, partial curve, poor fit]
Cc1onc(-c2ccccc2)c1C(=O)Nc1cc(C(F)(F)F)ccc1N1CCOCC1 0.1 µM [inhibitor, full curve, poor fit]
O=C(COC(=O)c1ccc(S(=O)(=O)NCc2ccco2)cc1)Nc1ncc(Cl)cc1Cl 28.2 µM [inhibitor, full curve]
COc1ccc2nc(NNC(=O)c3cc(=O)c4ccccc4o3)sc2c1 79.4 µM [inhibitor, single point]
O=C(NCc1ccco1)C1CC(=O)N(CCc2ccccc2)C1 (stereo unspecified) 70.8 µM [inhibitor, single point]
Cc1ccc(NC(=O)CSc2ccc(-c3ccccn3)nn2)c(C)c1 39.8 µM [inhibitor, single point]
Oc1ccc(Cn2ccnc2)c2cccnc12 7.08 µM [inhibitor, full curve, poor fit]
COc1ccc(CCNC(=O)C2CCC(=O)N(CC3CCCCC3)C2)cc1 (stereo unspecified) 14.1 µM [inhibitor, partial curve]
O=S(=O)(c1cccs1)N1CN(Cc2cccs2)c2nc3ccccc3nc21 1.78 µM [inhibitor, single point]
O=C1CCCC(O)=C1N=Nc1c(Cl)cc(C(F)(F)F)cc1Cl 39.8 µM [inhibitor, single point]

Copied from the entries so far, two compounds:
Potency, inconclusive:
CN(Cc1ccco1)S(=O)(=O)c1nnc(NC(=O)c2ccccc2Cl)s1 63.1 µM [inhibitor, single point]
CC(C)CNC(=O)Nc1cc(C(=O)NCc2ccc(C(C)C)cc2)ccc1N1CCCC1 1 µM [inhibitor, full curve]

Next part:

Potency, active:
COc1cc(/C=N/NC(=O)c2cccnc2)ccc1OCC(=O)Nc1ccc(C)cc1 12.6 µM
CSc1nsc(/C=C/Nc2ccc(C(=O)O)cc2)c1C#N 31.6 µM
CCOC(=O)CNC(=O)c1cc2c(=O)n3cccc(C)c3nc2n1C 70.8 µM
O=C1/C(=C\c2cc(Br)cc(Br)c2O)SC(=S)N1Cc1ccccc1 35.5 µM
Cc1ccccc1NC(=O)NNC(=O)COc1ccc2ccccc2c1 15.8 µM
CC(=O)Nc1cccc(NC(=O)CCn2cnc3cc(C)c(C)cc32)c1 25.1 µM
C=CSc1sc(Cl)c(N(CC)CC)c1[N+](=O)[O-] 20 µM
O=C(Nc1ccccc1C(=O)O)c1ccccc1 31.6 µM
O=C(OCc1cc(=O)n2nc(-c3cccs3)sc2n1)c1cccc(F)c1 17.8 µM

Potency, inactive:
COc1ccc(CCNC(=O)c2cc(=O)c3ccc(C)cc3o2)cc1OC
Cc1cc(C)c(S(=O)(=O)NCC(c2ccco2)S(=O)(=O)c2cccs2)c(C)c1 (stereo unspecified)
COc1ccccc1CNC(=O)C(CC(C)C)NC(=O)C1CCC(C)CC1 (stereo unspecified)
COCc1ccc(O)c2ncccc12
COc1ccc(C(=O)CCC(=O)Nc2ccc(C)c(Cl)c2)cc1
CCOC(=O)c1nn(-c2ccc(OC)cc2)c(=O)c2c(N)scc12
O=C(NCc1cccs1)c1ccc(CSc2nc3ccncc3n2Cc2ccccc2F)cc1
CCC(=O)N1CCc2cc(S(=O)(=O)NCCC(=O)Nc3ccc(CC)cc3)ccc21
O=C(O)CCCC(=O)Nc1ccc(N2CCCC2)cc1
COc1ccc(NC(=O)c2csnn2)cc1Cl
CS(=O)(=O)N(CC(=O)NCC1CCCO1)c1cc(Cl)c(Cl)cc1Cl (stereo unspecified)
CCOc1ccc2nc(N3CCCC(C(=O)Nc4ccc(OC)cc4)C3)sc2c1 (stereo unspecified)
COC(=O)c1sc2nc(CSc3nc4ccc(C)cc4[nH]3)[nH]c(=O)c2c1C
CCOC(=O)c1sc2ncn(CC(=O)Nc3cc(Cl)ccc3C)c(=O)c2c1C
O=C(CSc1ccc2nnc(-c3cccnc3)n2n1)NCc1ccco1
CC(=O)c1ccc(N2CCN(C(=O)c3cc(S(=O)(=O)N4CCCCCC4)cn3C)CC2)cc1
Cc1cccc(OC(=O)Cn2c(C(F)(F)F)nc3ccccc32)c1

5 entries drawn at random from those above:
Potency, inactive:
O=C(O)CCCC(=O)Nc1ccc(N2CCCC2)cc1
O=C(CSc1ccc2nnc(-c3cccnc3)n2n1)NCc1ccco1
O=C(NCc1cccs1)c1ccc(CSc2nc3ccncc3n2Cc2ccccc2F)cc1
COC(=O)c1sc2nc(CSc3nc4ccc(C)cc4[nH]3)[nH]c(=O)c2c1C
Cc1cccc(OC(=O)Cn2c(C(F)(F)F)nc3ccccc32)c1

Following part.

Activity change, negative = inhibition, inconclusive:
CC(=O)c1ccc(-n2c(=O)[nH]c(=O)c3c(N)c(C(=O)c4ccc(Cl)cc4)sc32)cc1 -40.9% [inhibitor]
O=C(CN1CCOCC1)N/N=C/c1ccc(-c2ccc(C(=O)O)cc2)o1 -41.2% [inhibitor]
CC(CCc1ccc(O)cc1)N1CCC(Oc2ccc(C(=O)N3CCCC3)cc2)CC1 (stereo unspecified) -36.9% [inhibitor]
CCOC(=O)c1c(O)cc(C)[nH]c1=O -31.5% [inhibitor]
